Source: paper PMC8249925
No constants are given. Whether binding was seen depends on the method and setting. In cells and extracts the contact can be indirect. Some entries that bind do so weakly or less than the wild type.

The chains behind the UniProt entries cited, without tags or fusion partners. Residues count along the entry.
UniProt O00206, residues 24-839: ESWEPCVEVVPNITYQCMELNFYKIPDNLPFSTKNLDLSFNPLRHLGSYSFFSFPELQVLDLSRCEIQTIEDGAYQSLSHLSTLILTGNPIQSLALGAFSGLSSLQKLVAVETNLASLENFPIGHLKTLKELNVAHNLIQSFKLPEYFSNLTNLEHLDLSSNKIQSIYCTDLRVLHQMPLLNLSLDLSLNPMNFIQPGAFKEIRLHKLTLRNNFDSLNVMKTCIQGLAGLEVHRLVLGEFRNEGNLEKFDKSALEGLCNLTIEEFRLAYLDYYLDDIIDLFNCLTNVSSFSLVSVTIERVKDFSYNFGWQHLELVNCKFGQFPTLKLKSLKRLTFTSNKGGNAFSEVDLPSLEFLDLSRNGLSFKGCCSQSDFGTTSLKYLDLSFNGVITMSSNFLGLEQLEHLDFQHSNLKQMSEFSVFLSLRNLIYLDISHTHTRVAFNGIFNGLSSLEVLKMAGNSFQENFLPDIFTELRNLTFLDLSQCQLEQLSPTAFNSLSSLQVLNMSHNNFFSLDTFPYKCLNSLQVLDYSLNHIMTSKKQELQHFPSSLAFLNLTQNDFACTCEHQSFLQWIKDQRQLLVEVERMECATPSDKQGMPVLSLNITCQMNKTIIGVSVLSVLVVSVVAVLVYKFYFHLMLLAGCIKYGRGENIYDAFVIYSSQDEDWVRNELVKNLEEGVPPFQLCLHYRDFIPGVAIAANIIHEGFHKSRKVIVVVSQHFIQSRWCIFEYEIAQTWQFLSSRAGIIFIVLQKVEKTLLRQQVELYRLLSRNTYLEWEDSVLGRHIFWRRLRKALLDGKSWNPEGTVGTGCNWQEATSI

Molecular target: toll-like receptor 4 (TLR4) on HEK-Blue hTLR4 cells (human) (UniProt O00206)
Assay: proximity ligation; positive controls in fixed HEK-Blue hTLR4 cells; Duolink PLA with anti-TLR4 and anti-MD2 antibodies, or anti-Ku70 and anti-Ku80 antibodies

B1: myeloid differentiation 2 (MD-2) (protein, UniProt Q9Y6Y9 19-160)
chain: QKQYWVCNSSDASISYTYCDKMQYPISINVNPCIELKRSKGLLHIFYIPRRDLKQLYFNLYITVNTMNLPKRKEVICRGSDDDYSFCRALKGETVNTTISFSFKGIKFSKGKYKCVVEAISGSPEEMLFCLEFVILHQPNSN
binding: binds
